Data taken from ChEMBL document CHEMBL3988442, “University of Dundee, Small-Polar-MMV Screening Library” (2021).

The chains behind the UniProt entries cited, without tags or fusion partners. Residues count along the entry.
UniProt P9WPC5, whole entry: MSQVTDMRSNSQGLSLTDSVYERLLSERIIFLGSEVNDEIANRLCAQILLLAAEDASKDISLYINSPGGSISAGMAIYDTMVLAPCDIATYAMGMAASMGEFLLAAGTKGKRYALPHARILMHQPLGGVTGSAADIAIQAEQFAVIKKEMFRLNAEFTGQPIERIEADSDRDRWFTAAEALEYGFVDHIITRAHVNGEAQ
UniProt P9WPC3, whole entry partner: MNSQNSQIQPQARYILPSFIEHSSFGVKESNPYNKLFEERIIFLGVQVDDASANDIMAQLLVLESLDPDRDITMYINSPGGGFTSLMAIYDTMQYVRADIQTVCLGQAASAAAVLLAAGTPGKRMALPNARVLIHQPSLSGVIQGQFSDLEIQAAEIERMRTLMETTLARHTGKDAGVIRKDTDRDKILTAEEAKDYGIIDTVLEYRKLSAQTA
UniProt P9WNZ1, whole entry: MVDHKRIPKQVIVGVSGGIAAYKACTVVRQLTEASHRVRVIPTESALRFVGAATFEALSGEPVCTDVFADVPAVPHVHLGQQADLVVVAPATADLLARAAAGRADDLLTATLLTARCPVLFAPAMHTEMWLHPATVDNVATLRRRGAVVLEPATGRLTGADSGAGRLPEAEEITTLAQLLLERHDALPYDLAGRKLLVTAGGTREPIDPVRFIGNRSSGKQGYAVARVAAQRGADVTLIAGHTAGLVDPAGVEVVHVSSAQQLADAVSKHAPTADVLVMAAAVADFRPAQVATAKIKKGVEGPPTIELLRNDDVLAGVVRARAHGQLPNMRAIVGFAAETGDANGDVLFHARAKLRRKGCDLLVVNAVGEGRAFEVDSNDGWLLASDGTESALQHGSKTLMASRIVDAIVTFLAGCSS
UniProt Q8IDJ8, 1-583: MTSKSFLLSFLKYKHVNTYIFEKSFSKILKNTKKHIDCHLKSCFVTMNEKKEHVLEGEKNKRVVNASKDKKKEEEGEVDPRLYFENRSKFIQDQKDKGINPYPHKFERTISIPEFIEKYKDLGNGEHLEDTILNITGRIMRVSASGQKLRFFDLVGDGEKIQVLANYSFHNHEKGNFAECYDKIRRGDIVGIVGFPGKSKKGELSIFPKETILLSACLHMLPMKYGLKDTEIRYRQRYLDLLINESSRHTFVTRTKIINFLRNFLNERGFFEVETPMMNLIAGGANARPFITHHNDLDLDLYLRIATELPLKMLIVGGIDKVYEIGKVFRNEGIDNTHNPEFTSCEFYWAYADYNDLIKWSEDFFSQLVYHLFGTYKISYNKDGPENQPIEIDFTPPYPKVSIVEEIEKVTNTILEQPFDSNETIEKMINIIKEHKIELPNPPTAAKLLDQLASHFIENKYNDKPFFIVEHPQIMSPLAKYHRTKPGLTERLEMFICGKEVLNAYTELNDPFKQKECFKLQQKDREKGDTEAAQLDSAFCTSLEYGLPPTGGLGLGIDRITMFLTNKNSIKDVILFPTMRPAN

ClpP1P2: 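Protease assay of ClpP1P2, read by the AMC dye that it sets free. Target: ClpP1P2, Mycobacterium tuberculosis (UniProt P9WPC5 and UniProt P9WPC3). Concentration: 50 µM. Direction is inferred from only a few compounds that gave an IC50; most scored high, so higher reads as stronger inhibition. Most other retested compounds had strongly negative values. Size under these conditions: about 69,000 compounds, about 10 of them at 50% or above in at least one test.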
CoaBC: 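Enzyme assay of CoaBC with a phosphate dye (Biomol Green) read at 650 nm. Target: Coenzyme A biosynthesis protein CoaBC, Mycobacterium tuberculosis (UniProt P9WNZ1). Compounds at 30 µM. Higher reads as stronger inhibition, judged from the few compounds that gave an IC50. Most strong results did not repeat in a second test. About 67,000 compounds were tested under these conditions; 0.06% (about 40) showed 50% or more at least once.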
PfKRS1: 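Enzyme assay of the cytosolic lysyl-tRNA synthetase in 384-well plates, read by luminescence. Target: Lysine-tRNA ligase, Plasmodium falciparum 3D7 (UniProt Q8IDJ8). Tested at 30 µM. Higher reads as stronger inhibition, judged from the few compounds that gave an IC50. About 69,000 compounds were tested under these conditions; 0.071% (about 49) showed 50% or more at least once.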
Leishmania in macrophages: 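Cell assay of Leishmania donovani living inside macrophages; the read-out is not stated. Tested at 30 µM. Higher reads as stronger inhibition (inferred: compounds with an IC50 in retests scored well above the rest). About 69,000 compounds were tested under these conditions; 1.5% (about 1,000) showed 50% or more at least once.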

The filed quantity is “Percent Effect” (%). The record does not define 0% and 100%; most values in the screen are far below 50% and negative numbers occur (in some assays of this library far below -100). Compounds were drawn at random from those tested, without regard to their results. Two or more numbers in one place are separate tests of the same structure; such repeats can differ widely. A dash means the value is not listed here; it may have been measured.

| # | Compound | ClpP1P2 | CoaBC | PfKRS1 | Leishmania in macrophages |
|---|---|---|---|---|---|
| 1 | `O=C(NCCNS(=O)(=O)c1ccc2c(c1)CCCC2)c1ccoc1` | -5.587% | 14.73% | 5.117% | 0.9258% |
| 2 | `CC(C)C(=O)N1CCCC(Cc2cccnc2)C1` (stereo not drawn) | -12.12% | 28.31% & 10.82% | 0.04728% | -1.777% |
| 3 | `Cn1cc(N2CC3(CCN(CC4CCOCC4)CC3)OCC2=O)cn1` | 2.547% | 1.75% | 5.586% | - |
| 4 | `Cc1cc(C(=O)N2CCCC2c2nc(O)cc(C(C)C)n2)on1` (stereo not drawn) | 5.578% | 4.358% | 2.285% | -4.303% & 10.68% |
| 5 | `COc1ccc(OCc2sc(C3(O)CCCNCC3)nc2C)cc1.Cl` (stereo not drawn) | - | - | - | 9.769% |
| 6 | `CC1CN(C)CCN1C(=O)c1cnc2onc(CC(C)(C)C)c2c1` (stereo not drawn) | 5.309% | 4.232% | 4.396% | 0.9261% |
| 7 | `CO[C@@H]1CN(S(=O)(=O)c2cn(C)cn2)[C@@H]2CCCO[C@@H]21` | 7.511% | 5.556% | 1.158% | - |
| 8 | `O=C(NCc1nncn1-c1ccccc1)C1CCCC1` | -26.97% | 7.567% | 1.249% | 25.06% |
| 9 | `[H][C@]12CCN[C@@]1([H])CN(C(=O)Cc1ccc(F)cc1)C2` | - | - | - | 4.947% |
| 10 | `O=C(NCc1ccon1)Nc1cc(F)ccc1N1CCCCC1` | -16.42% | -0.6289% | 7.491% | -35.57% |
| 11 | `CC(O)CN1CCN(C(=O)c2cccn2Cc2cccnc2)CC1` (stereo not drawn) | 4.014% | 4.28% | -0.192% | 20.8% |
| 12 | `c1ccc(-n2nc(CNC3CCc4ncnn4C3)c3c2CCC3)cc1` (stereo not drawn) | -11.51% | 0% | -1.466% | -21.2% |
| 13 | `CCc1nc(N2CCN(Cc3ncccc3C)CC2)c2cnn(C)c2n1` | -24.89% | 2.228% | -2.085% | 9.714% |
| 14 | `CN(C)S(=O)(=O)N1CCC[C@]2(C[C@@H](Oc3ccccn3)CO2)C1` | -11.92% | 1.901% | 3.067% | - |
| 15 | `Cc1nn2c(N3CCC(O)CC3)cc(-c3ccccc3)nc2c1C` | -2.489% | -0.2151% | 5.248% | 10.05% |
| 16 | `CC(C)n1cc(-c2nc3cc(S(=O)(=O)N4CCCC4)ccc3n2C)cn1` | 0.1273% | 1.646% | 5.801% | -36.56% |
| 17 | `Cc1cccc(CN2CCc3c(COCC(=O)N(C)C)nn(C)c3C2)n1` | -14.88% | 1.402% | 1.377% | - |
| 18 | `O=C(O)C(F)(F)F.O=C(O)C(F)(F)F.[H][C@]12CCC[C@@]1(COc1ccccn1)CN(S(=O)(=O)c1cccnc1)C2` | - | - | - | 22.73% |
| 19 | `CC(OCC1CC1)C(=O)N1CCCN(Cc2nccn2C(C)C)CC1` (stereo not drawn) | -9.897% | -0.6361% | 0.5987% | 39.98% |
| 20 | `O=C1C[C@H]2[C@@H](CCN2Cc2ccccn2)N1Cc1cccnc1` | -3.537% | 8.366% | 3.794% | - |
| 21 | `CC(C)N1CCN(C)CC(Cc2cc(N(C)C)ncn2)C1` (stereo not drawn) | -17.71% | 3.398% | -1.128% | 9.705% |
| 22 | `CO[C@H]1COC[C@@H]1NC(=O)C1(Oc2ccc(Cl)cc2)CCNCC1` | 5.674% | -21.51% | -3.307% | 9.396% |
| 23 | `O=C(O)C(F)(F)F.[H][C@@]12CN(Cc3cccc(C)c3)C[C@]1([H])OCCN2CC(=O)N(C)C` | - | - | - | 48.24% |
| 24 | `Cc1cnc(NC(=O)c2cccc(CN(C)Cc3ccno3)c2)s1` | 15.23% | 14.04% | -2.924% | 15.29% |
| 25 | `Cc1cc(NC(=O)[C@H]2CCCCN2C(=O)OC(C)(C)C)no1` | 0.9707% | 1.775% | 5.22% | 12.9% |
| 26 | `Cc1ccccc1N1CCCN(C(=O)CCc2ccncc2)CC1` | 5.77% | 1.008% | 5.064% | 2.615% |
| 27 | `Cc1cnn(CC2CCCN2C(=O)CCc2c(C)noc2C)c1` (stereo not drawn) | -10.73% | -0.9223% | 1.669% | 10.08% |
| 28 | `CCOCc1nc(N2CCOCC2)sc1C(=O)NCCCc1ccco1` | 17.6% | 1.976% | 2.253% | 16.11% |
| 29 | `CCOCc1nn(C)c2c1CN(CCO)CC2` | -21.62% | 2.97% | 2.84% | 15.96% |
| 30 | `CCc1ncncc1C(=O)NCCNc1ncnc2sccc12` | 2.343% | 3.293% | -0.06969% | 23.02% |
| 31 | `CC[S+]([O-])CCc1nc(CC(C)C)nn1-c1ccc2c(c1)OCCO2` (stereo not drawn) | 24.95% | 5.511% | -2.073% | -4.168% |
| 32 | `CCn1cnnc1CNC(=O)c1ccc(Cl)cc1F` | 9.074% | 6.789% | 5.928% | -19.24% |
| 33 | `O=C(CCC1CCCO1)NCc1ccnc(-n2cccn2)c1` (stereo not drawn) | 4.602% | 0.8347% | 0.2873% | -15.07% |
| 34 | `COc1ccc2c(c1)OCC(Cc1cc(C(=O)N3CCCC3)ccn1)C2` (stereo not drawn) | 8.981% | 7.403% | 2.385% | 10.27% |
| 35 | `Cn1cc(CN2CCc3nc4ccccc4c(=O)n3CC2)cn1` | -12.91% | 0% | -0.5741% | 13.94% |
| 36 | `CC(C)N(C)S(=O)(=O)c1ccc2c(c1)CCN(C(=O)c1cscn1)C2` | -15.45% | 4.391% | -0.1442% | -70.66% |
| 37 | `Cc1ccc(CC2COCCN(S(=O)(=O)c3ccccc3)C2)nc1` (stereo not drawn) | -13.07% | -0.2427% | -0.9181% | 20.21% |
| 38 | `CS(=O)(=O)N1CCCC1C(=O)Nc1cnc2n1CCCC2` (stereo not drawn) | -9.113% | 5.089% | 5.626% | -9.051% & 22.65% |
| 39 | `O=C(NCCO)c1sc2ncccc2c1C1CN(C2CCCC2)CCO1` (stereo not drawn) | -4.554% | -14.36% | 0.4005% | 35.11% |

Once more, the final 2:

| Compound | ClpP1P2 | CoaBC | PfKRS1 | Leishmania in macrophages |
|---|---|---|---|---|
| `CS(=O)(=O)N1CCCC1C(=O)Nc1cnc2n1CCCC2` (stereo not drawn) | -9.113% | 5.089% | 5.626% | -9.051% & 22.65% |
| `O=C(NCCO)c1sc2ncccc2c1C1CN(C2CCCC2)CCO1` (stereo not drawn) | -4.554% | -14.36% | 0.4005% | 35.11% |